Values of other authors as cited in paper PMC6033897, “Characterization and Validation of a Human 3D Cardiac Microtissue for the Assessment of Changes in Cardiac Pathology” (Scientific Reports, 2018).
Where a name gives a salt, the structure may show the parent alone.

Details: total Cmax, therapeutically relevant maximum total plasma concentration; source not given; cited from earlier work

Question: With COc1cc2c(cc1OC)C(=O)C(CC1CCN(Cc3ccccc3)CC1)C2 (stereo not shown) [Donepezil HCl] as the compound, how does the Cmax read?
Answer: The Cmax was 200 nM.
